Test results reported in paper PMC10998217.
These are yes or no findings as the source states them, for the method shown. In cells and extracts the contact can be indirect. Some entries that bind do so weakly or less than the wild type. For some assays here: Sequences can lack the tags named with a protein.

Protein sequences, listed by entry. Tags and fused reporters are not part of them.
UniProt O14980: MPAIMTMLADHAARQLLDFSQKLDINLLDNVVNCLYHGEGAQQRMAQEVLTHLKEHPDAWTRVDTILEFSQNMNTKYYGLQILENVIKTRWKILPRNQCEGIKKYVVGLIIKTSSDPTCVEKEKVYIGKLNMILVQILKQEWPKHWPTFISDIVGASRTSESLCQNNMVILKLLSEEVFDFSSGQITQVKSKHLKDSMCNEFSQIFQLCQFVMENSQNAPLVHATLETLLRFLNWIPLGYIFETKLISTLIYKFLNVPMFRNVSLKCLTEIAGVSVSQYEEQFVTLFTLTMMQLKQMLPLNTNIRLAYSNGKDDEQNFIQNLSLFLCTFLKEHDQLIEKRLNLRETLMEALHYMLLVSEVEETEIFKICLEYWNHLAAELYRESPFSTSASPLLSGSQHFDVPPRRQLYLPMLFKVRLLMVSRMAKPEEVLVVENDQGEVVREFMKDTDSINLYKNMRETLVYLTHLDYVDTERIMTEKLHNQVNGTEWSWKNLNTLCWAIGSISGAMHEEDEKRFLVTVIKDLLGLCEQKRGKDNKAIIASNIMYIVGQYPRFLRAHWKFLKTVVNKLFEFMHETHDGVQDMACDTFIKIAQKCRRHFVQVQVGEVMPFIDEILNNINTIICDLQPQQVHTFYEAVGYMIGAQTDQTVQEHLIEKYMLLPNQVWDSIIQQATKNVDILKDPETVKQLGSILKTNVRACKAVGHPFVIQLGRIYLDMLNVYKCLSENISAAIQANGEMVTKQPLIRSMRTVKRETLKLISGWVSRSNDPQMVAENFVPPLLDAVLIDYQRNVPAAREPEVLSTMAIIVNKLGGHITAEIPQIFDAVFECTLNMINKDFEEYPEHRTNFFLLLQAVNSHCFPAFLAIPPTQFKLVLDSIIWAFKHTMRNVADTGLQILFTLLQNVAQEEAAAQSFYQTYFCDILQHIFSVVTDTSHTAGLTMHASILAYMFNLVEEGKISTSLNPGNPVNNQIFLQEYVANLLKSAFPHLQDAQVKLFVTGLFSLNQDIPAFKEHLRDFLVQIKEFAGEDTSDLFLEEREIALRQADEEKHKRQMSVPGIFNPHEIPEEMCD
UniProt Q9Y5T5: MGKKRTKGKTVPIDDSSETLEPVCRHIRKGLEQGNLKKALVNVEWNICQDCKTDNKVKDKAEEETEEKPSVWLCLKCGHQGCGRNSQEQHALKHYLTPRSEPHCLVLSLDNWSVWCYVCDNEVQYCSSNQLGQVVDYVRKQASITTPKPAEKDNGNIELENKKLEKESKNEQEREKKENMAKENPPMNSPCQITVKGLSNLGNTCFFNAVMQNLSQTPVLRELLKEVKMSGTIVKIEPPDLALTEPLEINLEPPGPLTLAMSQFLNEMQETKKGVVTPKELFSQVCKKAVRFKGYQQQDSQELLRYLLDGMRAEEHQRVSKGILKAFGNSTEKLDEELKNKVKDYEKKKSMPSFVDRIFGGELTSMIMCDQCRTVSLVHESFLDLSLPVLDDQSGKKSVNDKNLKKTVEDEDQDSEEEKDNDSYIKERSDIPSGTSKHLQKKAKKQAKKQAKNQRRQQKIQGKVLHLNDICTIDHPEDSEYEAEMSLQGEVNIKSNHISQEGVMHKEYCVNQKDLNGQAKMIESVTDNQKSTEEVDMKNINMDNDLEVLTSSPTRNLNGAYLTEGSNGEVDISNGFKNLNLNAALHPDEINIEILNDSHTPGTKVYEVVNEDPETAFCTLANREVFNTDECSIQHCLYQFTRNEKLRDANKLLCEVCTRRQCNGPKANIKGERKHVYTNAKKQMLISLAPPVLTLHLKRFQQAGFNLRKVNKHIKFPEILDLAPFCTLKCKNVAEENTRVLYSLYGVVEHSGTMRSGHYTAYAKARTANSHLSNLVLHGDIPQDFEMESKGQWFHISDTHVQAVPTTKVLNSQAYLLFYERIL

Experiments:
[1] = target: HA-Crm1 (chromosome region maintenance 1) (UniProt O14980); experiment: co-IP; HeLa cells transfected with Flag-USP16 and HA-Crm1, treated or not with TMG + glucose; immunoblotted with anti-Flag antibodies
GST-OGT = target: T1, GST-OGT (UniProt O15294); experiment: pull-down; recombinant GST-OGT (or GST) incubated with lysates of HeLa cells transfected with Flag-USP16 or vector; only the target purified
T1 sequence: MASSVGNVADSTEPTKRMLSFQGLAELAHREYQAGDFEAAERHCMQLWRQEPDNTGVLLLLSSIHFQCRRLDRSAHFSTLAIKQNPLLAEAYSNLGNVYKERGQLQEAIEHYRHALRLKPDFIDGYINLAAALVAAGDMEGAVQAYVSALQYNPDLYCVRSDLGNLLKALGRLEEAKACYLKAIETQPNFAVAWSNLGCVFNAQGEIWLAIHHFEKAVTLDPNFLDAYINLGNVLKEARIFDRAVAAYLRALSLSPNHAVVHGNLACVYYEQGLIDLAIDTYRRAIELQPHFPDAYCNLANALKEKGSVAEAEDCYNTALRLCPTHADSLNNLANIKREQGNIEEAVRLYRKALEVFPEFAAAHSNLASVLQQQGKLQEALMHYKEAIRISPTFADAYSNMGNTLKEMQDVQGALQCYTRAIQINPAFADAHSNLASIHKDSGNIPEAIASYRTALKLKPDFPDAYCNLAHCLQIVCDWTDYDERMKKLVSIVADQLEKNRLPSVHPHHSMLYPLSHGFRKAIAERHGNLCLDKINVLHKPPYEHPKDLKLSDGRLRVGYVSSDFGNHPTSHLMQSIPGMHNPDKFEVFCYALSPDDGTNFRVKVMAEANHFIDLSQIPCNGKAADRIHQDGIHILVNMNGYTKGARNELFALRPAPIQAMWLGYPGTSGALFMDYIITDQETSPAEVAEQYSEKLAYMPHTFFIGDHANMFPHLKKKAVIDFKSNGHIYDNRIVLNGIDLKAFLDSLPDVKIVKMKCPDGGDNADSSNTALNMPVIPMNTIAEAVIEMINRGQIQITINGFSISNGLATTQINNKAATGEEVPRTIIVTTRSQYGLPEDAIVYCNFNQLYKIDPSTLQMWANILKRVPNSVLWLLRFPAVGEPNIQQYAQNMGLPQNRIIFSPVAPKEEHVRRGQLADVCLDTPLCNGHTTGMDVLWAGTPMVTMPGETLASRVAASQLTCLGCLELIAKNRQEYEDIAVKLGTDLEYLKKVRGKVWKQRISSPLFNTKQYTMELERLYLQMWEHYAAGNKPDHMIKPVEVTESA

binding [1]: binds
binding (GST-OGT): binds
Substance: Flag-USP16 (ubiquitin-specific peptidase 16) (from UniProt Q9Y5T5 1-823) (enzyme)
